Data as given in patent US11519859B2, “Rhodol-based thallium sensors for high-throughput screening of potassium channels” (priority 2018, dated 2022).

Test system: HEK-293 cells co-expressing GIRK1 and GIRK2
Assay: Fluorescence microscopy, cellular localization
Type: cell-based
Settings: dye incubation 1 h, Hoechst counterstain; Thallos 1 μM, 8c 5 μM, Rhodamine 123 1 μM

Molecule | cellular localization
Rhodamine 123 [reference compound] | punctuate mitochondrial staining
COc1cc(NC(=O)c2ccc3c(c2)C(=O)OC32c3ccc(OC(C)=O)cc3Oc3cc(N(C)C)ccc32)ccc1N(CC(=O)OCOC(C)=O)CC(=O)OCOC(C)=O (centres unmarked) [Compound 8c, bis(acetoxymethyl) 2,2′-((4-(3′-acetoxy-6′-(dimethylamino)-3-oxo-3H-spiro[isobenzofuran-1,9′-xanthene]-5-carboxamido)-2-methoxyphenyl)azanediyl)diacetate] | diffuse cytoplasmic staining
